Counter-ions that a name gives are not always drawn. ± gives the standard deviation of the averaged measurements. This is one part of the list. These are raw signals, not scaled to a control.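 Ribosome-assembly readouts in HeLa cells were imaged via ENP1 staining, with or without export block, or inducible tagged ribosomal protein reporters. Machine learning classified per-cell signal location versus solvent (DMSO) controls. Hits surpassed the DMSO false-positive mean by five standard deviations and were visually confirmed; three biological replicates.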
test system: HeLa RPL29-GFP reporter; experiment: fraction of reporter-positive cells with nuclear (nucleolar or nucleolar/nucleoplasmic) RPL29-GFP (MainHitrate); higher = more cells with nucleolar/nuclear readout signal (for ENP1 -LMB: less RNAPI inhibition; for +LMB ENP1 and RP reporters: stronger nuclear/nucleolar retention, i.e. ribosome biogenesis defect); settings: concentration: 1 µM; treatment time: 6 h

Q: With `CC(C)c1nc(CN(C)C(=O)N[C@@H](CCN2CCOCC2)C(=O)N[C@H](CC[C@H](Cc2ccccc2)NC(=O)OCc2cncs2)Cc2ccccc2)cs1` [Cobicistat (GS-9350)] as the compound, how does the “fraction of reporter-positive cells with nuclear” value (“fraction” below) read?
A: Its value is 0.212 ± 0.06.

Q: With `CN(C)[C@@H]1C(O)=C(C(N)=O)C(=O)[C@@]2(O)C(O)=C3C(=O)c4c(O)cccc4[C@@](C)(O)[C@H]3[C@H](O)[C@@H]12` [Oxytetracycline (Terramycin)] as the compound, how does the “fraction” value read?
A: The value was 0.215 ± 0.074.

Q: Which “fraction” value does the source give for `CC1(C)S[C@@H]2[C@H](NC(=O)[C@H](NC(=O)N3CCN(S(C)(=O)=O)C3=O)c3ccccc3)C(=O)N2[C@H]1C(=O)O` [Mezlocillin Sodium] here?
A: The value was 0.226 ± 0.041.

Q: For `COc1cc(NC(C)CCCN)c2ncccc2c1` (stereo not given) [Primaquine Diphosphate], which “fraction” value is on record?
A: Its value is 0.211 ± 0.087.

Q: `Cc1cc(C2CCCCC2)n(O)c(=O)c1` [Ciclopirox (Penlac)] was tested. Which “fraction” value did it give?
A: Its value is 0.238 ± 0.049.

Q: Which “fraction” value does the source give for `C[N+](C)(C)CCOC(N)=O` [Carbachol] here?
A: The value was 0.302 ± 0.28.

Q: For `N[C@H](Cc1ccccc1)C(=O)O` [D-Phenylalanine], which “fraction” value is on record?
A: The value was 0.246 ± 0.059.

Q: Which “fraction” value does the source give for `O=C(O)Cc1ccccc1Nc1c(Cl)cccc1Cl` [Diclofenac Potassium] here?
A: The value was 0.206 ± 0.032.

Q: Which “fraction” value does the source give for `Nc1ccc(S(=O)(=O)Nc2ccccn2)cc1` [Sulfapyridine (Dagenan)] here?
A: The value was 0.223 ± 0.052.

Q: `Cc1cccc(C)c1NC(=O)C1CCCCN1C` (stereo not given) [Mepivacaine HCl] was tested. Which “fraction” value did it give?
A: The value was 0.206 ± 0.078.

Q: With `CCCC(=O)[O-].[Na+]` [Sodium butyrate] as the compound, how does the “fraction” value read?
A: Its value is 0.212 ± 0.076.

Q: `CC1(C)O[C@@H]2C[C@H]3[C@@H]4C[C@H](F)C5=CC(=O)C=C[C@]5(C)[C@@]4(F)[C@@H](O)C[C@]3(C)[C@]2(C(=O)CO)O1` [Fluocinolone acetonide (Flucort-N)] was tested. Which “fraction” value did it give?
A: The value was 0.289 ± 0.032.

Q: How did the “fraction” value turn out when `COc1cc(C(=O)NC2CCCNC2)cc(OC)c1OC` (stereo not given) [Troxipide] was run?
A: Its value is 0.276 ± 0.09.

Q: How did the “fraction” value turn out when `COc1ccccc1OCC(O)CN1CCN(CC(=O)Nc2c(C)cccc2C)CC1` (stereo not given) [Ranolazine (Ranexa)] was run?
A: The value was 0.281 ± 0.13.

Q: For `O=C(O)c1cn(-c2ccc(F)cc2)c2cc(N3CCNCC3)c(F)cc2c1=O` [Sarafloxacin HCl], which “fraction” value is on record?
A: The value was 0.245 ± 0.1.

Q: With `Cc1cnc(NC(=O)C2=C(O)c3ccccc3S(=O)(=O)N2C)s1` [Meloxicam (Mobic)] as the compound, how does the “fraction” value read?
A: Its value is 0.213 ± 0.075.

Q: `CNCC(O)c1ccc(O)c(O)c1` (racemic) [DL-Adrenaline] was tested. Which “fraction” value did it give?
A: Its value is 0.213 ± 0.049.

Q: With `Cc1cc2c(cc1S(N)(=O)=O)S(=O)(=O)CCC2` [Meticrane] as the compound, how does the “fraction” value read?
A: Its value is 0.287 ± 0.26.

Q: For `Clc1ccc2c(c1)C(N1CCNCC1)=Nc1ccccc1O2` [Amoxapine], which “fraction” value is on record?
A: Its value is 0.209 ± 0.07.

Q: Which “fraction” value does the source give for `Cc1cn([C@H]2C=C[C@@H](CO)O2)c(=O)[nH]c1=O` [Stavudine] here?
A: The value was 0.197 ± 0.055.

Q: How did the “fraction” value turn out when `CC[C@H](C)C(=O)O[C@H]1C[C@@H](C)C=C2C=C[C@H](C)[C@H](CC[C@@H]3C[C@@H](O)CC(=O)O3)[C@H]21` [Lovastatin (Mevacor)] was run?
A: The value was 0.22 ± 0.071.

Q: Which “fraction” value does the source give for `CCCCc1ncc(/C=C(\Cc2cccs2)C(=O)O)n1Cc1ccc(C(=O)O)cc1` [Eprosartan Mesylate] here?
A: Its value is 0.204 ± 0.088.

Q: Which “fraction” value does the source give for `N#CC1(c2ccc(NC(=O)c3cccnc3NCc3ccncc3)cc2)CCCC1` [Apatinib (YN968D1)] here?
A: Its value is 0.22 ± 0.087.

Q: For `CCN(CC)C(=S)SSC(=S)N(CC)CC` [Disulfiram (Antabuse)], which “fraction” value is on record?
A: Its value is 0.348 ± 0.12.

Q: `NC(=O)c1cccnc1` [Nicotinamide (Niacinamide)] was tested. Which “fraction” value did it give?
A: Its value is 0.231 ± 0.05.

Q: `CC(=O)OCC(=O)[C@@]12N=C(C)O[C@@H]1C[C@H]1[C@@H]3CCC4=CC(=O)C=C[C@]4(C)[C@H]3[C@@H](O)C[C@@]12C` [Deflazacort (Calcort)] was tested. Which “fraction” value did it give?
A: Its value is 0.257 ± 0.04.

Q: For `CCCNC(C)C(=O)Nc1c(C)csc1C(=O)OC` (stereo not given) [Articaine HCl], which “fraction” value is on record?
A: Its value is 0.214 ± 0.086.

Q: `Clc1ccc(COC(Cn2ccnc2)c2ccc(Cl)cc2Cl)cc1` (stereo not given) [Econazole nitrate (Spectazole)] was tested. Which “fraction” value did it give?
A: Its value is 0.225 ± 0.07.

Q: With `CC(=O)Oc1ccccc1C(=O)Nc1ncc([N+](=O)[O-])s1` [Nitazoxanide (Alinia, Annita)] as the compound, how does the “fraction” value read?
A: Its value is 0.202 ± 0.09.

Q: For `O=c1c(-c2ccc(O)cc2)coc2cc(O)ccc12` [Daidzein], which “fraction” value is on record?
A: Its value is 0.219 ± 0.076.

Q: How did the “fraction” value turn out when `C=C1CC[C@H](O)C/C1=C/C=C1\CCC[C@]2(C)[C@@H]([C@H](C)CCCC(C)(C)O)CC[C@@H]12` [Calcifediol] was run?
A: The value was 0.225 ± 0.056.

Q: `CC(C)NCC(O)c1ccc(O)c(O)c1` (stereo not given) [Isoprenaline hydrochloride] was tested. Which “fraction” value did it give?
A: The value was 0.247 ± 0.086.

Q: For `S=c1[nH]cnc2nc[nH]c12` [Mercaptopurine], which “fraction” value is on record?
A: Its value is 0.221 ± 0.069.

Q: How did the “fraction” value turn out when `CCOc1cc(N)c(Cl)cc1C(=O)NCC1CN(Cc2ccc(F)cc2)CCO1` (stereo not given) [Mosapride citrate] was run?
A: Its value is 0.209 ± 0.053.

Q: For `CCc1c2c(nc3ccc(OC(=O)N4CCC(N5CCCCC5)CC4)cc13)-c1cc3c(c(=O)n1C2)COC(=O)[C@]3(O)CC` [Irinotecan HCl Trihydrate (Campto)], which “fraction” value is on record?
A: Its value is 0.228 ± 0.068.

Q: With `CC#C[C@]1(O)CC[C@H]2[C@@H]3CCC4=CC(=O)CCC4=C3[C@@H](c3ccc(N(C)C)cc3)C[C@@]21C` [Mifepristone (Mifeprex)] as the compound, how does the “fraction” value read?
A: The value was 0.23 ± 0.043.

Q: Which “fraction” value does the source give for `N=C(N)Nc1ccc(C(=O)Oc2ccc3cc(C(=N)N)ccc3c2)cc1` [Nafamostat mesylate] here?
A: The value was 0.193 ± 0.064.

Q: Which “fraction” value does the source give for `C=CCNC(N)=S` [Allylthiourea] here?
A: The value was 0.193 ± 0.059.

Q: Which “fraction” value does the source give for `C[C@@H]1C[C@H]2[C@@H]3CCC4=CC(=O)C=C[C@]4(C)[C@@]3(F)[C@@H](O)C[C@]2(C)[C@@]1(O)C(=O)CO` [Dexamethasone] here?
A: The value was 0.232 ± 0.043.

Q: How did the “fraction” value turn out when `CN1CCCCC1CCN1c2ccccc2Sc2ccc([S+](C)[O-])cc21` (stereo not given) [Mesoridazine Besylate] was run?
A: Its value is 0.292 ± 0.17.

Reference: the supplement of paper PMC12542422
